Test results taken from patent publication US9925251B2, “Treatments for Mycobacterium tuberculosis” (priority 2011, dated 2018).
Some results were stated once for a whole list of compounds, not compound by compound.

Biological target: Mtb ClpP1P2 (Mycobacterium tuberculosis, UniProt P9WPC3+P9WPC5)
Assay type: biochemical
Conditions: concentration dependence for activation

| SMILES | Hill coefficient |
| --- | --- |
| CC(C)C[C@@H](C=O)NC(=O)[C@H](CC(C)C)NC(=O)OCc1ccccc1 [Z-Leu-Leu-aldehyde] | 5-7 |
| CC(C)C[C@H](NC(=O)[C@H](CC(C)C)NC(=O)OCc1ccccc1)C(=O)O [Z-Leu-Leu] | 5-7 |
